Earlier results, collected in patent US8361509B2, “Pharmaceutical dosage forms for the release of active compounds” (Laboratorios Farmacéticos Rovi, S.A., priority 2000, dated 2013).
At least one read-out could not be matched to a standard name with certainty.

Details: microparticles of 11-34 micrometers, all cases

Compound: Cc1ccc(-c2cc(C(F)(F)F)nn2-c2ccc(S(N)(=O)=O)cc2)cc1 [celecoxib]
- relative bioavailability: below 20%
